Assay results from PubChem BioAssay AID1439 (NMMLSC, 2008).
About 770 (0.35%) of roughly 220,000 compounds were called active. Inconclusive means that the source gave no clear call. Such entries were picked first, then a sample of the others. Rule as the data show it: active = binding response below about 49% or above about 150%; inconclusive = no clear call, values can overlap the other calls; inactive = in between.

The chains behind the UniProt entries cited, without tags or fusion partners.
UniProt P09471, whole entry, looked up: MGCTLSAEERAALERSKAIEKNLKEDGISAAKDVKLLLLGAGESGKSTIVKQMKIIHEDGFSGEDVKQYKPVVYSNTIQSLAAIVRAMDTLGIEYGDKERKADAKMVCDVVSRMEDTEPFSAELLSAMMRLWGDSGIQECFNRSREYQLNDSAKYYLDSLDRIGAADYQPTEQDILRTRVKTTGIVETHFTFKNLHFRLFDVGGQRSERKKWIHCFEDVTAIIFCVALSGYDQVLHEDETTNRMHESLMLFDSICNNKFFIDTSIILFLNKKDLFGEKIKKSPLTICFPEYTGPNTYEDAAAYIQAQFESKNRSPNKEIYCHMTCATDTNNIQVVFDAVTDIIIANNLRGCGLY

These compounds were tested against Guanine nucleotide-binding protein G(o) subunit alpha (Homo sapiens) (UniProt P09471) (assay: RGS7-Galphao binding modulators, primary screen, biochemical, multiplexed bead flow cytometry (AID 1439;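 also: fluorescent Galphao held in activated GDP-AlF4 state binding bead-coupled RGS7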)). Conditions: at 10 µM, actives lie on both sides.
In the case of `C/C=C(/C)C(=O)O[C@@H]1c2cc3c(c4c2[C@@]2(CO4)C(=O)C(OC)=C(OC)C=C2C[C@@H](C)[C@H]1C)OCO3`, the binding response (% of control) was inconclusive: 90.8%.
For `O=C(Nc1ccccc1)Oc1cccc(Br)c1`, the binding response (% of control) was inconclusive: 98.8%.
In the case of `COc1ccc(N(C(=O)c2cccnc2)S(=O)(=O)c2cccs2)cc1`, the binding response (% of control) was inconclusive: 121%.
With `CC(C)c1nc(SCC(=O)Nc2ccc([N+](=O)[O-])cc2Br)n[nH]1` the binding response (% of control) was inconclusive: 91.8%.
`COc1ccc(CCN(C)C(=S)NC(=O)c2ccc(F)cc2Cl)cc1OC` was tested, and the binding response (% of control) was inconclusive: 98.4%.
For `Cc1nnc2nc(-c3ccccc3)nc(-c3ccccc3)n12`, the binding response (% of control) was inconclusive: 83.1%.
With `CCS(=O)(=O)c1nc(S(=O)(=O)c2ccc(Cl)cc2)c(NCc2ccccn2)s1` the binding response (% of control) was inactive: 106%.
In the case of `CC(=O)NC1(c2ccccc2)CCN(c2cc(C)nc(-c3ccccc3)n2)CC1`, the binding response (% of control) was inactive: 96.1%.
With `CCCCN(Cc1ccccc1)C(=O)CCN1C(=O)C2C3C=CC(C3)C2C1=O` (configuration not stated) the binding response (% of control) was inconclusive: 124%.
In the case of `O=C1CCC(C(=O)OCC(=O)c2ccccc2)N1` (configuration not stated), the binding response (% of control) was inactive: 68.5%.
In the case of `COC(=O)c1sc(S(=O)(=O)Nc2ccc(Br)cc2)c(C(=O)OC)c1C`, the binding response (% of control) was inactive: 96.8%.
With `O=C(/C=C/c1ccc2ccccc2n1)N1CCN(c2ccccc2)CC1` the binding response (% of control) was inconclusive: 77.8%.
With `Cc1cc2ccccn2c1C(=O)c1cc([N+](=O)[O-])cc([N+](=O)[O-])c1` the binding response (% of control) was inconclusive: 110%.
In the case of `COc1cccc(CNC(=O)C2=Cc3cccc(OC)c3OC2)c1`, the binding response (% of control) was inactive: 98.3%.
For `O=[N+]([O-])c1cc(C(F)(F)F)cc([N+](=O)[O-])c1NCCNC(=S)Nc1ccc(Cl)c(Cl)c1`, the binding response (% of control) was inconclusive: 95.5%.
For `C/[N+]([O-])=C\C1C(=O)CC(C)(C)CC1=O`, the binding response (% of control) was inconclusive: 109%.
In the case of `CC(C)[C@H](NC(=O)c1ccc(F)cc1)C(=O)NC1=NCCS1`, the binding response (% of control) was inactive: 104%.
In the case of `CCOC(=O)c1c[nH]n2c(=O)cc(C)nc12`, the binding response (% of control) was inconclusive: 23.9%.
With `Cc1cc(Cl)nc2ccc(Cc3ccc4nc(Cl)cc(C)c4c3)cc12` the binding response (% of control) was inconclusive: 96%.
In the case of `CC(=O)c1c(COC(=O)c2ccc(Cl)cc2)nc2ccccc2[n+]1[O-]`, the binding response (% of control) was inconclusive: 87.9%.
For `COc1ccc(/C=N/OCC(=O)Nc2nc3ccccc3s2)cc1`, the binding response (% of control) was inactive: 107%.
For `COC(=O)c1[nH]c2cc(C)ccc2c1NC(=O)CN1CCOCC1`, the binding response (% of control) was inconclusive: 52.7%.
For `COC(=O)c1ccccc1N(C)S(=O)(=O)c1cc2c(cc1C)OCC(=O)N2`, the binding response (% of control) was inactive: 98.1%.
For `O=C(NCc1ccncc1)C(=O)N/N=C/c1ccccn1`, the binding response (% of control) was inactive: 108%.
For `O=C(CCNC(=O)c1ccco1)Nc1ccc(N2CCOCC2)cc1`, the binding response (% of control) was inactive: 95.6%.
`CCC(O)CNC(=O)CCc1nnc(C2(c3ccc(Cl)cc3)CCC2)o1` (configuration not stated) was tested, and the binding response (% of control) was inactive: 104%.
`O=C(NCc1ccc(N2CCCC2=O)cc1)c1cccc(Cl)c1` was tested, and the binding response (% of control) was inconclusive: 108%.
For `CCC(C)[C@H](NC(=O)NCc1ccc(Cl)cc1)C(=O)O` (some centres not stated), the binding response (% of control) was inconclusive: 18.4%.
With `COc1ccc(/C=C2\CCOC2=O)cc1` the binding response (% of control) was inconclusive: 49.9%.
For `CCN(CC)S(=O)(=O)c1ccc(N2CCOCC2)c(NC(=O)COc2ccc(C#N)cc2)c1`, the binding response (% of control) was inconclusive: 102%.
With `COc1ccc(OC)c(/C=C2\SC(=S)N(N3CCOCC3)C2=O)c1` the binding response (% of control) was inconclusive: 88.2%.
For `C/C=C/C(=O)N1CC2(CC(c3cccc(NC(=O)CC)c3)=NO2)C[C@H]1C(N)=O` (some centres not stated), the binding response (% of control) was inconclusive: 83.5%.
For `NC(=O)C1CCN(CC(=O)Nc2ccccc2N2CCOCC2)CC1`, the binding response (% of control) was inconclusive: 59.5%.
`CCCc1n(CC(O)COCc2ccccc2)c2ccccc2[n+]1C` (configuration not stated) was tested, and the binding response (% of control) was inconclusive: 97.1%.
With `O=C(N=Nc1c(O)n(Cc2ccccc2)c2ccccc12)c1ccncc1` the binding response (% of control) was inconclusive: 122%.
In the case of `CN=c1scc(C)n1/N=C/c1cc(Br)c(O)c(Br)c1`, the binding response (% of control) was inconclusive: 106%.
With `Cc1nc(CC(=O)c2ccc(O)c(C)c2O)cs1` the binding response (% of control) was inconclusive: 87%.
In the case of `CN1c2ccccc2C(=O)C(=C2SCCCS2)S1(=O)=O`, the binding response (% of control) was inconclusive: 205%.
With `Cn1nc(C(F)(F)F)c(-c2cccc(C(F)(F)F)c2)c1NC(=O)c1cccnc1` the binding response (% of control) was inconclusive: 75%.
`CC1=C(C(=O)N2CCOCC2)C(c2cc(C)ccc2C)NC(=S)N1` (configuration not stated) was tested, and the binding response (% of control) was inactive: 104%.
`NC(=O)C(=O)NN=C1C2CC3CC(C2)CC1C3` was tested, and the binding response (% of control) was inconclusive: 107%.
With `CCOC(=O)C1=C(Cc2ccc(OC)cc2)C(=O)c2ccccc2C1=O` the binding response (% of control) was inactive: 74%.
`COC(=O)CC1c2ccccc2S(=O)(=O)N1Cc1ccccc1` (configuration not stated) was tested, and the binding response (% of control) was inconclusive: 109%.
With `CC1(C)CC(=O)C=C(Nc2ccccc2F)C1` the binding response (% of control) was inactive: 101%.
For `Nc1cccc(/C=C/C(=O)O)c1`, the binding response (% of control) was inconclusive: 93.3%.
For `Cc1ccc(CNC(=O)C2CC(c3ccc(C(F)(F)F)cc3)=NO2)o1` (configuration not stated), the binding response (% of control) was inconclusive: 129%.
With `CS(=O)(=O)N1CCN(c2nc3ccc(Cl)cc3s2)CC1` the binding response (% of control) was inconclusive: 118%.
`C=CCn1c(CSCc2ccc(Cl)cc2Cl)nnc1SCC(=O)Nc1ccc(C(=O)O)cc1` was tested, and the binding response (% of control) was inconclusive: 104%.
For `COc1cc(/C=N/NC(=O)c2nonc2N)cc(OC)c1OC`, the binding response (% of control) was inconclusive: 122%.
In the case of `Cc1ccccc1NC(=S)/C(=C(\[O-])c1cc(C)n(Cc2ccccc2Cl)c1C)[n+]1ccccc1`, the binding response (% of control) was inconclusive: 128%.
In the case of `O=C(c1ccccc1SCc1ccc(F)cc1)N1CCOCC1`, the binding response (% of control) was inactive: 99.4%.
`Cc1ccc(-n2nc(C)c3c2NC2=C(C(=O)CC(C)(C)C2)C3c2ccccc2OCC(=O)O)cc1` (configuration not stated) was tested, and the binding response (% of control) was inconclusive: 96%.
For `Cc1c(NC(=O)COC(=O)COc2ccc(Nc3ccccc3)cc2)c(=O)n(-c2ccccc2)n1C`, the binding response (% of control) was active: 155% [activator].
For `Cc1cc(=O)[nH]c(N/N=C2/CCCC/C2=C\c2ccccc2)n1`, the binding response (% of control) was inconclusive: -2.32%.
With `CNC(=O)NNC(=O)c1onc(-c2c(Cl)cccc2Cl)c1C(=O)OC` the binding response (% of control) was inconclusive: 98.8%.
For `Cn1[nH]c(CSc2ccc(Cl)cc2)cc1=O`, the binding response (% of control) was inconclusive: 97.5%.
`Cc1ccc(S(=O)(=O)Nc2cc(=O)[nH]c3c2CCC3)cc1` was tested, and the binding response (% of control) was inconclusive: 80.2%.
`Oc1csc(Cc2nc(-c3ccccc3F)cs2)n1` was tested, and the binding response (% of control) was inactive: 106%.
In the case of `O=C(Cn1nnc(-c2ccc(N3CCOCC3)cc2)n1)N1CCOCC1`, the binding response (% of control) was inconclusive: 125%.
With `Oc1ccc(/C=N/N2CCN(c3ccccn3)CC2)cc1` the binding response (% of control) was inconclusive: 138%.
For `O=C(N/N=C\c1coc2ccccc2c1=O)c1ccco1`, the binding response (% of control) was inconclusive: 147%.
With `O=S1(=O)CCC(NC(=S)SCc2ccccc2Br)C1` (configuration not stated) the binding response (% of control) was inactive: 97.5%.
`O=C(Nc1ccc(N2CCOCC2)cc1)C1CC(=O)N(c2ccc(Cl)cc2)C1` (configuration not stated) was tested, and the binding response (% of control) was inconclusive: 109%.
In the case of `O=C(c1ccccc1Cl)N1CCSCC1`, the binding response (% of control) was inconclusive: 148%.
For `CC(=O)N1CCCN(Cc2cn(-c3cccc(C)c3)nc2-c2cccc(F)c2)CC1`, the binding response (% of control) was inconclusive: 32.1%.
In the case of `CCOc1ccc(S(=O)(=O)N/N=C(\C)C2CCCCC2)cc1`, the binding response (% of control) was inactive: 98.3%.
With `CCN1C(=O)C(CC(=O)Nc2ccc(F)cc2)N(Cc2ccco2)C1=S` (configuration not stated) the binding response (% of control) was inconclusive: 100%.
For `COc1ccc(CC(C(=O)Nc2cccc(F)c2)c2nn[nH]n2)c(OC)c1` (configuration not stated), the binding response (% of control) was inactive: 96.6%.
With `O=C(/C=C/Nc1ccc(OC(F)(F)F)cc1)C(F)(F)F` the binding response (% of control) was inactive: 101%.
With `COc1ccc2[nH]cc(C(=O)CCl)c2c1` the binding response (% of control) was inconclusive: 90.8%.
For `C=CCc1ccccc1OCC(=O)O`, the binding response (% of control) was inconclusive: 91.1%.
With `CSc1ccc2c(c1)C(N1CCN(C)CC1)Cc1ccccc1S2` (configuration not stated) the binding response (% of control) was inconclusive: 113%.
In the case of `O=C(Nc1ccc(OC(F)F)c(Cl)c1)Nc1ccc2c(c1)OCO2`, the binding response (% of control) was inactive: 111%.
`NS(=O)(=O)c1ccc(CCNC(=O)c2ccc(Cl)cc2[N+](=O)[O-])cc1` was tested, and the binding response (% of control) was inconclusive: 98.5%.
`CCOC(=O)Cn1c(C)c(Br)c(COC)c(C#N)c1=O` was tested, and the binding response (% of control) was inconclusive: 96.6%.
For `COc1cc([N+](=O)[O-])ccc1NC(=S)NC(=O)CC(C)(C)C`, the binding response (% of control) was inconclusive: 101%.
In the case of `O=C(N/N=C(\CC(=O)c1cccs1)C(F)(F)F)c1cccnc1`, the binding response (% of control) was inconclusive: 128%.
With `Nc1ccn(-c2ncc(C(F)(F)F)cc2Cl)c(=O)n1` the binding response (% of control) was inconclusive: 96%.
`CCOc1ccc(NC(=S)NCc2cccnc2)cc1` was tested, and the binding response (% of control) was inconclusive: 137%.
With `COc1ccccc1CN1CCCC(C(=O)N2CCCCC2)C1` (configuration not stated) the binding response (% of control) was inconclusive: 83.2%.
With `COc1ccc(NC(=S)N(Cc2ccccn2)Cc2ccccc2Cl)cc1` the binding response (% of control) was inactive: 98.7%.
For `Cc1cc(/C=C2\SC(=S)NC2=O)c(C)[nH]1`, the binding response (% of control) was inconclusive: 127%.
With `CCN(CC)CCOC(=O)c1ccc([N+](=O)[O-])cc1` the binding response (% of control) was inconclusive: 51.2%.
For `CCN(CC)S(=O)(=O)c1ccc(Cl)c(NC(=O)CCCCl)c1`, the binding response (% of control) was inconclusive: 228%.
For `C=CCSC1=NN2CCS(=O)(=O)N=C2S1`, the binding response (% of control) was inconclusive: 104%.
`Cc1c(N=C2N=C(NC(=O)c3ccc(F)cc3)c3ccccc32)c(=O)n(-c2ccccc2)n1C` was tested, and the binding response (% of control) was inconclusive: 127%.
In the case of `O=C1/C(=C/c2ccccc2)SC(=S)N1C1CCS(=O)(=O)C1` (configuration not stated), the binding response (% of control) was inconclusive: 105%.
With `CCOc1cc2c(cc1/C=C/C(=O)O)OC(C)C2` (configuration not stated) the binding response (% of control) was inconclusive: 54.2%.
For `Nc1nc2ccccc2n1/N=C/c1ccc2c(c1)OCO2`, the binding response (% of control) was inconclusive: 110%.
In the case of `CC1=[N+](C)N(c2ccccc2)C(=O)C1N=C/C=C/c1ccccc1` (configuration not stated), the binding response (% of control) was inconclusive: -47.6%.
In the case of `O=C(O)/C=C/c1ccccc1Oc1ccccc1`, the binding response (% of control) was active: 154% [activator].
With `O=C(CSc1nc2cc(Cl)ccc2s1)Nc1cccc(S(=O)(=O)N2CCOCC2)c1` the binding response (% of control) was inactive: 98.3%.
